The assay has as its target NRP2-Fc (R&D Systems #2215-N2) (human) (UniProt O60462). Briefly: SPR; column Binding to NRP2 observed by SPR. Background: Surface plasmon resonance follows binding to a sensor surface in real time, without labels.

Sequences of proteins named here, by UniProt entry; tags and fusion partners are left off. A change or cut given only in a name is not applied to a line headed by its entry. A line that says so, or that is headed by a name, gives the form on record, which may keep a tag or linker. Residues count along the entry.
UniProt O60462, residues 23-864: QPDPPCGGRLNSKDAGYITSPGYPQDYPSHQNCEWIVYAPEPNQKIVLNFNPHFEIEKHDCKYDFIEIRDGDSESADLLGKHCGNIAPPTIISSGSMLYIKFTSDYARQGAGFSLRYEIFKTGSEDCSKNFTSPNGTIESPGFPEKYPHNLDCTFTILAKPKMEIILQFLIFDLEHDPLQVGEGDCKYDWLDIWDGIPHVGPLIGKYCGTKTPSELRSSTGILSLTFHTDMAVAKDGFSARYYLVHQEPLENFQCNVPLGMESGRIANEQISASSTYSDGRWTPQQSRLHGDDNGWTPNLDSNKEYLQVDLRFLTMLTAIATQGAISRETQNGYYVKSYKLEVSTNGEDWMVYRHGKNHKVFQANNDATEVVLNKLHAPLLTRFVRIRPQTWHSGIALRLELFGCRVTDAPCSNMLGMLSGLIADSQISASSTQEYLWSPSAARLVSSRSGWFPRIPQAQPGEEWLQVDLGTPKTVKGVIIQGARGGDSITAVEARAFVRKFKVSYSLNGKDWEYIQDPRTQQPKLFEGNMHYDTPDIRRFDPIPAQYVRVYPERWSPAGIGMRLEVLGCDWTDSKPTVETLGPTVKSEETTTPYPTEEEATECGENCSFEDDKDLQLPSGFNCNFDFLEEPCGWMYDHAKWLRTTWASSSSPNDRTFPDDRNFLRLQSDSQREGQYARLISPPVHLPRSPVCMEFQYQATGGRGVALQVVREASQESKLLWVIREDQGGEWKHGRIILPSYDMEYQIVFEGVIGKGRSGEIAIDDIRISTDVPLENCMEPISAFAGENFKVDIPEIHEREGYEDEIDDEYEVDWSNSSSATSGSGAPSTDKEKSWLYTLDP
VEGF-A165 (P15692, form named): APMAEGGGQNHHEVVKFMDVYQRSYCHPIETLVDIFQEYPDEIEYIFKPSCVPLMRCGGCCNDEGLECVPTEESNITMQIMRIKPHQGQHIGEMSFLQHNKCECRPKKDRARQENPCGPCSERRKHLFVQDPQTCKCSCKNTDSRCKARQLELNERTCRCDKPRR
UniProt P49767, residues 103-227: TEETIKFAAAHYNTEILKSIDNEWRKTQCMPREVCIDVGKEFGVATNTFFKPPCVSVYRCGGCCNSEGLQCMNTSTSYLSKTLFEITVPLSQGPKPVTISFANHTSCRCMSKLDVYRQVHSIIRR

Results are given in words; binding and its absence hold for the method and conditions named. Some binding calls cover weakened binding; strength is not graded here.

Regarding “VEGF-A165 (from UniProt P15692 27-191) (ligand)”, the binding entry is “binds”.

Turning to “VEGF-C (from UniProt P49767 103-227) (ligand)”, the binding result is reported as “binds”.
